In patent publication US20240199763A1, “CONFORMATION SWITCHING NANOSTRUCTURES” (TECHNISCHE UNIVERSITÄT MÜNCHEN, priority 2021, published 2024):
pEC50: −log10 of the molar value. At least one compound was matched to its structure with a doubt left.

System: anti-Digoxigenin stabilized shells
Experiment: Antigen-triggered disassembly of anti-Digoxigenin stabilized icosahedral DNA origami shells (agarose gel, TEM, FRET)
Conditions: soluble digoxigenin antigens; depends on number of mounted antibodies per subunit interface; read-out: antigen threshold for antigen-triggered disassembly of the icosahedral shell (EC50)

C[C@]12CC[C@H](O)C[C@H]1CC[C@@H]1[C@@H]2C[C@@H](O)[C@]2(C)[C@@H](C3=CC(=O)OC3)CC[C@]12O [Digoxigenin]
pEC50: ~6.00
